Measurements as given in patent US20180333469A1.
No constants are given. Whether binding was seen depends on the method and setting. Some entries that bind do so weakly or less than the wild type.

Chains of the proteins cited; added tags and fusions are not shown. Lines headed by an entry give the natural chain unless they say otherwise; changes in a name come on top. Residues count along the entry.
UniProt P10646, residues 29-304: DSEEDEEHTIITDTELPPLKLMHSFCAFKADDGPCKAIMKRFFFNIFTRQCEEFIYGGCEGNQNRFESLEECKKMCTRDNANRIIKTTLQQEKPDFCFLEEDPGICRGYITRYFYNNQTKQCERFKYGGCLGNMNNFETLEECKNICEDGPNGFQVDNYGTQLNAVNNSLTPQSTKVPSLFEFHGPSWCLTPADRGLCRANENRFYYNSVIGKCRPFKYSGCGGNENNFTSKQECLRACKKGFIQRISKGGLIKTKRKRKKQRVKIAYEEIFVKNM
UniProt P00742: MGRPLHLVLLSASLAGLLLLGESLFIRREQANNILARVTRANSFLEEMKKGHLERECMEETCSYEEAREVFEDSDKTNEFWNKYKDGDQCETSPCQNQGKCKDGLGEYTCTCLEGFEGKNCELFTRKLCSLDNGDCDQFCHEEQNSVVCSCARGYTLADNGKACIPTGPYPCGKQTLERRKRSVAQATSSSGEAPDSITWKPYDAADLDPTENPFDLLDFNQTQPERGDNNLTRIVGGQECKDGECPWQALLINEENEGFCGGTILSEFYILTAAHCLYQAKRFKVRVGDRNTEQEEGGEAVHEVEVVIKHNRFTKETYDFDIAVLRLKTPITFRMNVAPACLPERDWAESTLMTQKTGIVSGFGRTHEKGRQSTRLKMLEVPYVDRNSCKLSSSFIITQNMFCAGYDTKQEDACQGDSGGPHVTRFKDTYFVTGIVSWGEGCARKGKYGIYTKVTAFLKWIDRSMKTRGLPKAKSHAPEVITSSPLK

Tests used:
[1] = biological target: tissue factor pathway inhibitor (TFPI) (UniProt P10646); experiment: SPR, Biacore 3000
[2] = biological target: tissue factor pathway inhibitor (TFPI) (UniProt P10646); experiment: fXa chromogenic assay, kinetic fit of the reversal of TFPI inhibition (summary of Table 7)
[3] = biological target: tissue factor pathway inhibitor (TFPI) (UniProt P10646); experiment: competition in a fXa chromogenic activity assay with substrate S-2765: SEQ ID NO: 3 (0-20 nM) competes with fXa (1 nM) for TFPI (1 or 4 nM)
[4] = biological target: tissue factor pathway inhibitor (TFPI) (UniProt P10646); experiment: competition in the fXa chromogenic activity assay: SEQ ID NO: 3 (0-50 nM) competes with fXa (1.0 or 0.5 nM) for TFPI (1.0 nM); readout is the restored fXa activity
[5] = biological target: tissue factor pathway inhibitor (TFPI) (UniProt P10646); experiment: fXa chromogenic assay, kinetics (FIG. 1A-D)
[6] = biological target: tissue factor pathway inhibitor (TFPI) (UniProt P10646); experiment: competition in the fXa chromogenic activity assay (Spectrozyme-fXa): SEQ ID NO: 3 (0, 1, 5 nM) competes with fXa (1 nM) for TFPI (0-12 nM), with fVIIa 1 nM and TF/PCPS (2 nM TF)
[7] = biological target: tissue factor pathway inhibitor (TFPI) (UniProt P10646); experiment: competition in the fXa chromogenic activity assay (Spectrozyme-fXa): SEQ ID NO: 3 (0, 1.0, 5.0 nM) competes with fXa (1.0 nM) for TFPI (0-12 nM)
[8] = biological target: tissue factor pathway inhibitor (TFPI) (UniProt P10646); experiment: fXa chromogenic assay, kinetics

binding [1]: binds
binding [2]: binds
binding [3]: binds
binding [4]: binds
binding [5]: binds
binding [6]: binds
binding [7]: binds
binding [8]: binds
Substance: fXa derivative (SEQ ID NO: 3) (from UniProt P00742 80-179; P00742 235-488)
